Here are results for 3 substances from patent publication US20070249013 (published 2007).

The data set can be described thus: general procedure: Fmoc solid-phase peptide synthesis; Rink-NHFmoc resin (0.6 mmol/g); DIC/HOBt. As to conditions: whole synthesis; for crude HPLC purity: λ=288 nm.

With H2N—CO-Phe-Lys-Gly-Orn-NHFmoc, the crude yield entry is listed as “Yield=78%” and the “crude HPLC purity” value is reported as “HPLC 97%”.

For H2N—CO-Phe-Lys-Gly-Orn-Lissamine, the crude yield entry is “Yield=53%” and the “crude HPLC purity” value was “HPLC 83%”.

For H2N—CO-Phe-Lys-Gly-Orn-Bodipy, the crude yield result is given as “Yield=53%” and the “crude HPLC purity” value is given as “HPLC 86%”.
